In patent publication US8012944B2, “Method for treating cancer using IAP antisense oligomer and chemotherapeutic agent” (Pharmascience Inc., priority 2003, dated 2011):
Some of these results come from one statement about several compounds together. Some ranges recur; such a range may be that of the whole group of compounds.

How the values were obtained:
[1] = test system: XIAP mRNA; assay: XIAP mRNA knock-down in H460 cells (real-time RT-PCR / TaqMan); format: cell-based, human; details: 1.2 μM, 6 hours of transfection (FIG. 6)
Procedure: RNA was extracted from cells lysed in RLT buffer (QIAGEN, Valencia, Calif.), and purified using QIAGEN RNeasy columns/kits. Real-time quantitative PCR was performed on a Perkin-Elmer ABI 7700 Prism PCR machine. RNA was reverse transcribed and amplified according to the TaqMan Universal PCR Master Mix protocol of PE Biosystems, using primers and probes designed to specifically recognize XIAP, HIAP1, survivin, or GAPDH. For human survivin, the forward primer was 5′-[…]-3′ (SEQ ID NO: 263), the reverse primer was 5′-GAAAGGAAAGCGCAACCG-3′ (SEQ ID NO: 264), and the probe was 5′-(FAM)[…](TAMRA)-3′ (SEQ ID NO: 265). […]
Relative quantification of gene expression was performed as described in the PE Biosystems manual using GAPDH as an internal standard. The comparative Ct (cycle threshold) method was used for relative quantitation of IAP mRNA levels compared to GAPDH mRNA levels. Briefly, real-time fluorescence measurements were taken at each PCR cycle and the threshold cycle (Ct) value for each sample was calculated by determining the point at which fluorescence exceeded a threshold limit of 30 times the baseline standard deviation. The average baseline value and the baseline SD are calculated starting from the third cycle baseline value and stopping at the baseline value three cycles before the signal starts to exponentially rise. […]

[2] = test system: XIAP protein; assay: XIAP protein knock-down in H460 cells (western blot, densitometry); format: cell-based, human; details: 4×4 MBOs; H460 cells (FIGS. 3 and 4)
Procedure: FIGS. 3 and 4 are graphs showing the effects of 4×4 mixed backbone (MBO) FG8 or E12 oligonucleotides in amounts of 31 nM (FIG. 3) or 63 nM (FIG. 4). H460 lung carcinoma cells were transfected for 18 hours on one, two, or three consecutive days using 125 nM MBOs and Lipofectamine 2000. Samples for western analysis were harvested at the indicated time. Scanning densitometry was performed, and XIAP protein levels were normalized to GAPDH and compared to a mock control set to 100%. The indicated percentages express % XIAP protein knockdown versus specific scrambled controls.
One day prior to transfection, H460 cells were plated in 6- or 96-well tissue culture plates. […]
The cells or tumor tissue samples were lysed with ice-cold lysis buffer (50 mM Tris, 150 mM NaCl, 2.5 mM EDTA, 0.1% SDS, 0.5% sodium deoxycholate, 1% NP-40, 0.02% sodium azide) containing protease inhibitors (Complete-Mini protease inhibitor tablets; Boehringer Mannheim GmBH, Mannheim, Germany). […] Protein content in the lysed extracts was determined using a detergent-compatible Bio-Rad assay (Bio-Rad Labs, Hercules, Calif.). […] Proteins were detected by enhanced chemiluminescence (ECL; Amersham Pharmacia Biotech, Buckinghamshire, England) and visualized after exposure to Kodak autoradiography film. Scanning densitometry (Molecular Dynamics, Sunnyvale, Calif.) was performed to quantify band intensities by volume/area integration. […]

Substance	reduction of XIAP mRNA level compared to untreated control [1]	amount effective in knocking-down XIAP protein [2]
MGmGTATCTCCTTCACCAGmUmA (antisense GGNANCNCCNNCACCAGNA; 2'-O-methyl modifications, chemistry not fully specified) [DE4]	50-70%	
mUmGmCmACCCTGGATACCmAmUmUmU (antisense NGCACCCNGGANACCANNN; 2'-O-methyl modifications, chemistry not fully specified) [FG8]		≤ 31 nM
